## Library screen at single concentrations

Each number is a percent effect as filed. How 0% and 100% were set is not recorded. Most values in the screen are low, and negative values occur. This is an unselected part of the compounds tested.

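Assay of Toxoplasma gondii numbers, read through their beta-galactosidase reporter with a colour substrate. Concentration: 10 µM. The record gives no direction; the compounds picked for IC50 retests had high values, so higher reads as fewer parasites. Size under these conditions: about 67,000 compounds, about 260 of them at 50% or above in at least one test.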

| Compound | percent effect |
|---|---|
| `O=C(O)C(F)(F)F.[H][C@@]12CN(C(=O)c3ccncc3F)C[C@]1([H])OCCN2CCOC` | 0.266 |
| `COCc1ccc(C(=O)N2CC[C@H](O)[C@@H](n3ccnc3)CC2)cc1` | 1.407 |
| `O=C(O)c1ccccc1CN1CCCC(Cc2ccn[nH]2)C1` (stereo not shown) | 22.9 |
| `O=C(O)C(F)(F)F.[H][C@@]12CN(Cc3ccoc3)CCO[C@]1([H])CN(S(=O)(=O)CCC)C2` | -13.35 |
| `CCc1nccn1CC(=O)Nc1cccc(C(=O)OC)c1` | 30.92 |
| `NC(=O)NC(=O)CCn1ccc(-c2ccsc2)n1` | 1.705 |
| `Cc1nn(C)c(Cl)c1C1CCCN1C(=O)c1csnn1` (stereo not shown) | -2.376 |
| `Cc1cccc(=O)n1CCC(=O)N(C)Cc1cccc2ncccc12` | -12.17 |
| `Cc1cc(S(=O)(=O)N2CCCc3cc(Br)ccc32)sc1C(=O)O` | 17.21 |
| `Fc1cnc(N2CCCC3(CCN(Cc4ccoc4)C3)C2)nc1.O=C(O)C(F)(F)F.O=C(O)C(F)(F)F` (stereo not shown) | -8.882 |
| `COCC1CN(C(=O)COc2ccccc2C)Cc2ncn(C)c21.O=C(O)C(F)(F)F` (stereo not shown) | -3.29 |
| `O=C(O)C(F)(F)F.[H][C@]12CCN(C(=O)CC)CC[C@@]1([H])S(=O)(=O)CCN2Cc1cccc(C)n1` | 18.65 |
| `COCCNC(=O)C1CN(C(N)=O)Cc2ccnn2C1` (stereo not shown) | -0.2333 |
| `Cc1nc(CN2CCC3(CCCN(Cc4ccncc4)C3)C2=O)cs1.O=C(O)C(F)(F)F.O=C(O)C(F)(F)F.O=C(O)C(F)(F)F` (stereo not shown) | -6.564 |
| `Cc1ccc(-c2nc(CN3CCN(C(=O)C4CC4)CC3)cs2)o1` | 8.283 |
| `O=C(c1cccs1)N1CCC(n2nc(-c3ccco3)ccc2=O)CC1` | 28.38 |
| `O=C(CCc1cc2n(n1)CCCNC2)N1CCN(C2CCCC2)C(=O)C1` | -10.86 |
| `COc1cccc(CC2CN(C3CC(C)(C)NC(C)(C)C3)CCO2)c1` (stereo not shown) | 23.83 |
| `CNC(=O)C1CN(C(C)C)CCN1c1nc(C)cc(C)n1` (stereo not shown) | -1.593 |
| `CN(CCc1ccccc1)C(=O)c1cc(CN2CCC(O)CC2)on1` | -5.245 |
| `CC(C)c1cc(NCC2(CO)CCCC2)ncn1` | -4.817 |
| `[H][C@]12CC[C@@]3(N=C(CC)N(CC(C)C)C3=O)[C@@]1([H])CN(C(=O)NCC(C)C)C2` | 4.167 |
| `Cc1cc(C)cc(-n2ncc3c2CCCC3N)c1` (stereo not shown) | 16.38 |
| `CC1CN(C(=O)Nc2ccc(Cl)c(C(=O)NC3CC3)c2)CC(C)(C)O1` (stereo not shown) | 6.019 |
| `CC(C)(C)CN[C@@H]1CO[C@H](CNC(=O)c2cccs2)[C@H]1O` | -5.637 |
| `O=C(O)C(F)(F)F.[H][C@@]12CCCO[C@]1([H])[C@H](OCc1ccncc1)CN2S(=O)(=O)CCC` | 2.438 |
| `COC(=O)c1ncccc1N1CCN(C(=O)CN2CCOCC2)CC1` | 34.43 |
| `CCN1CCOCC12CCN(c1cnccn1)CC2.O=C(O)C(F)(F)F` | 3.751 |
| `Cc1ccc(CN2CC3(CCN(C(=O)Cc4ccc(Cl)cc4)C3)C2)o1` | 0.3713 |
| `CC(C)Nc1nc2c(cc1C(=O)NCC1CC1)CCNCC2.O=C(O)C(F)(F)F.O=C(O)C(F)(F)F` | 1.923 |
| `Cc1cc(C)n(CC(=O)N2CCC(c3nc(C)no3)CC2)n1` | -3.548 |
| `CC(C)NC(=O)c1cnc(Sc2nccn2C)c(Cl)c1` | 0 |
| `CCC(C(=O)NCc1ccccn1)N(c1cccc(C)c1)S(C)(=O)=O` (stereo not shown) | 4.357 |
| `CN(CCCNc1cc(N2CCCC2CO)ncn1)S(C)(=O)=O` (stereo not shown) | 3.175 |
| `COc1cn(CC(N)=O)c(CSc2nc(C)cc(C)n2)cc1=O` | -3.737 |
| `CCn1nc(C)c(CN2CCCC(c3ccc(C(=O)O)cc3)C2)c1C` (stereo not shown) | -15.29 |
| `O=C(c1ccc(C2CCCN2C(=O)c2cscn2)s1)N1CCSCC1` (stereo not shown) | 1.097 |
| `Cl.O=C(NCc1ccccc1)C1=NOC2(CCNC2)C1` (stereo not shown) | 4.578 |
| `CC(=O)c1ccc(C(=O)N(C)Cc2nc(-c3ccccn3)no2)s1` | 3.887 |
| `CCCN(C)c1ncc2c(n1)N(C)CCN(CC1CC1)C2=O` | 10.1 |
| `O=C(CO)N1CCCC2(CCC(=O)N(CC3CC3)C2)C1` (stereo not shown) | -6.906 |
| `Cc1n[nH]c(C)c1NC(=O)C1CCCN(C(=O)NCC(C)C)C1` (stereo not shown) | 4.498 |
| `COc1cc(C(=O)N2CCC(c3n[nH]c(C)n3)CC2)cc(OC)c1C` | -23.34 |
| `Cc1cc(=O)n2nc(Oc3cc(Cl)cc(Cl)c3)sc2n1` | 3.204 |
| `CCc1nc(CN2CC[C@@](O)(CCOC)[C@H](C)C2)cs1` | 1.508 |
| `CC(=O)N1CCC(NS(=O)(=O)c2cccnc2)CC1` | -3.171 |
| `Cc1nn(C2CCS(=O)(=O)C2)c(O)c1Cc1ccc(Br)cc1` (stereo not shown) | 0.1369 |
| `COc1ncnc(N)c1CNCCOc1ccccc1Cl` | -3.311 |
| `COCC1CCN(S(=O)(=O)N2C[C@H](c3ccccc3)[C@@H](N)C2)CC1` | -3.106 |

The first 3 entries again:

{"compound": "O=C(O)C(F)(F)F.[H][C@@]12CN(C(=O)c3ccncc3F)C[C@]1([H])OCCN2CCOC", "percent effect": 0.266}
{"compound": "COCc1ccc(C(=O)N2CC[C@H](O)[C@@H](n3ccnc3)CC2)cc1", "percent effect": 1.407}
{"compound": "O=C(O)c1ccccc1CN1CCCC(Cc2ccn[nH]2)C1", "stereo": "stereo not shown", "percent effect": 22.9}

The values are deposited in ChEMBL (CHEMBL3988442, “University of Dundee, Small-Polar-MMV Screening Library” (2021)).